Test results published in US20030044413A1, “Methods of limiting apoptosis of cells” (Regents of the University of Minnesota, priority 1998, published 2003).
For at least one compound, name, drawing or mass did not settle the structure.

Columns and labels:
Bad = assay: Western blot, liver of bile acid fed rats: Bad; format: in vivo, rat; conditions: UDCA alone
Bcl-XL = assay: Western blot, liver of bile acid fed rats: Bcl-XL; format: in vivo, rat; conditions: UDCA alone or combined with DCA
HuH-7 cells = assay: DCA-induced apoptosis, Hoechst staining, HuH-7 cells; format: cell-based; conditions: UDCA alone at similar concentrations, 6 h
Description: Cell culture and preparation of rat primary hepatocytes. Rat primary hepatocytes were isolated from male Sprague-Dawley rats (200-250 g) by collagenase perfusion as described previously (Mariash et al., J. Biol. Chem, 261, 9583-9586 (1986)). Briefly, rats were aneshtesized with phenobarbitol and the livers were perfused with 0.05% collagenase. Hepatocyte suspensions were obained by passing digested livers through 0.125 mm gauze and washing cells in modified Eagles' medium (MEM, Life Technologies, Inc., Grand Island, N.Y.). […] After isolation, hepatocytes were resuspended in William's E medium (Life Technologies, Inc., Grand Island, N.Y.) supplemented with 26 mM sodium bicarbonate, 23 mM HEPES, 0.01 U/ml insulin, 2 mM L-glutamine, 10 nM dexamethasone, 5.5 mM glucose, 100 U/ml penicillin and 100 U/ml streptomycin and then 1.0×10^6 cells were plated on 35×10 mm […] tissue culture dishes (Becton Dickinson Labware, Lincoln Park, N.J.). The cells were maintained at 37° C. in a humidified atmosphere of 5% CO2 for 3 h. Plates were then washed with medium to remove dead cells, and medium containing 10% heat-inactivated FBS (55° C. for 30 min) was added (Atlanta Biologicals, Inc., Norcross, Ga.). Aliquots of 1.0×10^5 human (HuH-7) hepatoma cells were plated on 35×10 mm tissue culture dishes (Becton Dickinson Labware) and maintained at 37° C. in Dulbecco's MEM (Atlanta Biologicals, Inc.) supplemented with 10% FBS, 100 U/ml penicillin and 100 u/ml streptomycin for 3 h prior to incubation with bile acids.
(§1) Incubation of cells with bile acids. […] The medium was gently removed at the indicated time points and scored for nonviable cells by trypan blue dye exclusion. […]
(§2) Morphological evaluation of apoptosis. […] Fluorescence was visualized with a Zeiss standard fluorescence microscope (Carl Zeiss, Inc., Thornwood, N.Y.). […] Stained nuclei were scored by blind analysis and categorized according to the condensation and staining characteristics of chromatin. […] Three fields per dish of approximately 500 nuclei were counted; mean values are expressed as the percent of apoptotic nuclei.

Bax = assay: Western blot, liver of bile acid fed rats: Bax; format: in vivo, rat
Method: Animals and Diets. Male 160-175 g Sprague-Dawley rats (Sprague-Dawley, Indianapolis, Ind.), were maintained on a 12 h light-dark cycle and fed standard laboratory chow ad libitum for 3 days. The animals were then transferred to metabolic cages and fed diets of standard laboratory chow supplemented with either no bile acid or 0.4% (wt/wt) DCA, 0.4% UDCA, or a combination of DCA+UDCA (Bio-Serv, Frenchtown, N.J.). On day 10, the animals were sacrificed by exsanguination under ether anesthesia between 9 a.m. and 11 a.m. The livers were removed, rinsed in normal saline, and flash-frozen in liquid nitrogen until western blot analyses of apoptosis-related proteins were performed. All animals received humane care in compliance with the Guide for the Care and Use of Laboratory Animals, prepared by the National Academy of Sciences (NIH Publication No. 86-23, revised 1985).
Western Blot Analysis. Cytoplasmic proteins were isolated from rat liver tissue as described previously (Trembley et al., Cell Growth & Differ., 7, 903-916 (1996)). […] Cytoplasmic and mitochondrial protein concentrations were determined using the Bio-Rad protein assay (Bio-Rad Laboratories). […]
Densitometry. […] Quantitation of the autoradiograms was performed using the NIH Image 1.4 densitometric analysis program.

cytochrome c = assay: Cytochrome c release from isolated mitochondria after MPT; set-up: species or system rat
primary rat hepatocytes = assay: DCA-induced apoptosis, Hoechst staining, primary rat hepatocytes; format: cell-based; conditions: 50 μM UDCA alone
Description: Cell culture and preparation of rat primary hepatocytes. Rat primary hepatocytes were isolated from male Sprague-Dawley rats (200-250 g) by collagenase perfusion as described previously (Mariash et al., J. Biol. Chem, 261, 9583-9586 (1986)). Briefly, rats were aneshtesized with phenobarbitol and the livers were perfused with 0.05% collagenase. Hepatocyte suspensions were obained by passing digested livers through 0.125 mm gauze and washing cells in modified Eagles' medium (MEM, Life Technologies, Inc., Grand Island, N.Y.). […]
as §1, §2

`C[C@H](CCC(=O)O)[C@H]1CC[C@H]2[C@@H]3[C@@H](O)C[C@@H]4C[C@H](O)CC[C@]4(C)[C@H]3CC[C@]12C` [UDCA, ursodeoxycholic acid] was tested, and the “cytoplasmic Bad expression” value (Bad) was “decreased Bad expression”, the “cytoplasmic expression of Bcl-XL” value (Bcl-XL) was “increased” and the apoptosis versus control (HuH-7 cells) was “No significant difference from control”. The “mitochondrial Bax expression” value (Bax; UDCA feeding alone) was “increased Bax expression slightly above baseline”, the “effect on DCA-associated increase in mitochondrial Bax” value (Bax; combination feeding DCA + UDCA) was “prevented this dramatic change” and the “reduction of cytochrome c release in isolated mitochondria” value (cytochrome c; associated with deoxycholic acid) was 70%. For the same compound, the “reduction of cytochrome c release in isolated mitochondria” value (cytochrome c; associated with phenylarsine oxide) was 65% and the “nuclear morphology compared to controls” value (primary rat hepatocytes) was “no significant changes in nuclear morphology”.
